# Reference: the supplement of paper PMC9135407
# Where “and” joins values, the source holds several entries; their conditions need not be identical. Equal values may be shown once. Where a name gives a salt, the structure may show the parent alone. ± gives the standard deviation of the averaged measurements. The list shows a part of the results. Part of the spread comes from offsets between plates or batches.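 Culture-activated primary human stellate myofibroblasts, where regained lipid droplets signal inactivation. Value: share of Hoechst-counted cells above a per-plate Bodipy cutoff, in duplicate wells, with DMSO negative and nortriptyline positive controls on each plate. Hits: a control-normalized score above the plate's top-tenth-percentile nortriptyline wells, or one of a plate's three best wells. Final well concentrations are not given.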
# System: primary human hepatic stellate cells (donor 1)
# Assay: percent Bodipy-positive cells; higher = more lipid droplet accumulation
# Details: 48 h
# Description: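 Primary lipid accumulation screen in primary human hepatic stellate cell myofibroblasts (donor 1, passage 8) in 384-well plates. 100 nL of library compound was pin-transferred into 30 µL medium in duplicate, and cells were treated for 48 h. The 'Scaled' score combines distance from plate baseline, toxicity and reproducibility penalties, and is normalised to nortriptyline (positive) and DMSO (negative) controls on each plate. A hit is defined as scaled >0.85 or among the top 3 wells per plate.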
# [1] = library stock concentration: 10 mM
# [2] = library stock concentration: 3.33 mM
# [3] = library stock concentration: 80 uM
# [4] = library stock concentration: 400 uM
# [5] = library stock concentration: 2 mM
# [6] = library stock concentration: 2.9 mM
# [7] = library stock concentration: 1 mM
compound,measurement,setting,value
O=C(O)c1cc(=O)cc(C(=O)O)[nH]1 [Chelidamic acid],percent Bodipy-positive cells,[1],40.3 ± 2.4%
CC(C)C[C@H](NC(=O)[C@@H](NC(=O)c1cccc(-c2ccccc2)n1)[C@@H](C)O)B(O)O,percent Bodipy-positive cells,[2],62.9 ± 6%
same,percent Bodipy-positive cells,[1],85.1 ± 0.92%
C[C@]1(O)C[C@@H](c2nc(-c3ccc4ccc(-c5ccccc5)nc4c3)c3c(N)nccn32)C1 [OSI-906 (Linsitinib)],percent Bodipy-positive cells,[2],9.54 ± 2%
same,percent Bodipy-positive cells,[1],24.5 ± 7.4%
C[C@]1(O)C[C@@H](c2nc(-c3ccc4ccc(-c5ccccc5)nc4c3)c3c(N)nccn32)C1,percent Bodipy-positive cells,[3],9.22 ± 0.28%
same,percent Bodipy-positive cells,[4],12.7 ± 4.8%
same,percent Bodipy-positive cells,[5],12.4 ± 4%
same,percent Bodipy-positive cells,[1],13.5 ± 6.9%
C[C@@H]1CCO[C@H]2Cn3cc(C(=O)NCc4ccc(F)cc4F)c(=O)c(O)c3C(=O)N12,percent Bodipy-positive cells,[2],7.4 ± 3.9%
same,percent Bodipy-positive cells,[1],22.5 ± 1.4%
CO[C@H]1/C=C/O[C@@]2(C)Oc3c(C)c(O)c4c(O)c(cc(O)c4c3C2=O)NC(=O)/C(C)=C\C=C\[C@H](C)[C@H](O)[C@@H](C)[C@@H](O)[C@@H](C)[C@H](OC(C)=O)[C@@H]1C [Rifamycin sv],percent Bodipy-positive cells,[6],6.06 ± 0.63%
COc1cc2ncnc(Nc3cccc(Cl)c3)c2cc1OC [Tyrphostin AG 1478],percent Bodipy-positive cells,[1],83.82 ± 0.58%
C(=C\c1ccccc1)/CN1CCN(C(c2ccccc2)c2ccccc2)CC1 [Cinnarizine],percent Bodipy-positive cells,,29 ± 4.2%
same,percent Bodipy-positive cells,[1],66.7 ± 7%
O=C(O)[C@H](O)c1ccccc1 [R-(-)-Mandelic Acid],percent Bodipy-positive cells,[7],7.16 ± 0.91%
CCOC(=O)O[C@]1(C(=O)COC(=O)CC)CC[C@H]2[C@@H]3CCC4=CC(=O)C=C[C@]4(C)[C@H]3[C@@H](O)C[C@@]21C [Prednicarbate],percent Bodipy-positive cells,,8.63 ± 2.1%
"CCCCCC(=O)CC[C@H]1C=CC(=O)[C@@H]1C/C=C\CCCC(=O)O [13,14-dihydro-15-keto Prostaglandin A2]",percent Bodipy-positive cells,[7],10.4 ± 4.8%
O=C(Nc1ccccc1-c1cn2c(CN3CCNCC3)csc2n1)c1cnc2ccccc2n1,percent Bodipy-positive cells,[2],92.1 ± 3.7%
same,percent Bodipy-positive cells,[1],100%
Cc1nc2cc3nc(-c4cccs4)cnc3cc2n1C,percent Bodipy-positive cells,[2],9.79 ± 2.4%
Cc1ccc(C(=O)Nc2cccc(C(F)(F)F)c2)cc1-c1ccc2nc(NCCN3CCOCC3)ncc2c1,percent Bodipy-positive cells,[4],25.7 ± 2.1%
same,percent Bodipy-positive cells,[5],66.7 ± 8.2%
CC(=O)NCCCS(=O)(=O)O,percent Bodipy-positive cells,[1],33.3 ± 7.4%
COc1ccc2c(c1OC)C(=O)O[C@@H]2[C@H]1c2c(cc3c(c2OC)OCO3)CCN1C [Noscapine],percent Bodipy-positive cells,,24.6 ± 11%
COc1ccc2c(c1OC)C(=O)O[C@@H]2[C@H]1c2c(cc3c(c2OC)OCO3)CCN1C [Noscapine hydrochloride],percent Bodipy-positive cells,library stock concentration: 4.4 mM,3.98 ± 0.64%
same,percent Bodipy-positive cells,[1],13.5% and 4.25%
COc1ccc2c(c1OC)C(=O)O[C@@H]2[C@H]1c2c(cc3c(c2OC)OCO3)CCN1C [Noscapine hydrchloride],percent Bodipy-positive cells,[1],44.5 ± 16%
O=C(O)c1cc(/N=N/c2ccc(O)c(C(=O)O)c2)ccc1O,percent Bodipy-positive cells,[1],30.5 ± 1.3%
O=C(O)c1cc(/N=N/c2ccc(O)c(C(=O)O)c2)ccc1O [Olsalazine Sodium],percent Bodipy-positive cells,[2],6.8 ± 0.18%
same,percent Bodipy-positive cells,[1],44.1 ± 4.9%
CCCCCCCCCCCCCCCC(=O)OC(CC(=O)O)C[N+](C)(C)C (racemic) [Palmitoyl-DL-Carnitine chloride],percent Bodipy-positive cells,[1],75.1 ± 5.1%
C/C=C1\C(=O)C[C@H]2[C@@H]3CCC4=CC(=O)CC[C@]4(C)[C@H]3CC[C@]12C [Guggulsterone],percent Bodipy-positive cells,[1],16.3 ± 0.76%
CN(C)CC(=O)Nc1ccc2[nH]c(=O)c3ccccc3c2c1,percent Bodipy-positive cells,[2],9.13% and 25.4%
CC/C=C\C/C=C\C/C=C\CCCCCCCCCC(=O)O [Eicosatrienoic acid (20:3 n-3)],percent Bodipy-positive cells,[7],3.46 ± 0.93%
CN1C2CCC1CC(OC(c1ccccc1)c1ccccc1)C2.CS(=O)(=O)O (configuration not stated) [Benztropine mesylate],percent Bodipy-positive cells,[1],96.73 ± 0.91%
N#Cc1cc2c(OCC(O)CN3CCN(C(c4ccccc4)c4ccccc4)CC3)cccc2[nH]1 (configuration not stated),percent Bodipy-positive cells,library stock concentration: 10.7 mM,77.8 ± 1.8%
CC(C)(C)NCC(O)COc1cccc2c1CCC(=O)N2 (configuration not stated) [Carteolol HCl],percent Bodipy-positive cells,[2],12.3 ± 6.5%
same,percent Bodipy-positive cells,[1],27.4 ± 2.7%
CC(C)(C)NCC(O)COc1cccc2c1CCC(=O)N2 (configuration not stated) [Carteolol hydrochloride],percent Bodipy-positive cells,,30.4 ± 7.5%
O=C(CO)N1CCC(c2n[nH]c(-c3ccc(Cl)cc3)c2-c2ccncn2)CC1,percent Bodipy-positive cells,[4],17 ± 2.7%
same,percent Bodipy-positive cells,[5],19.7 ± 9.4%
same,percent Bodipy-positive cells,[1],16.3 ± 4%
CNC(=O)c1cc(Oc2ccc(NC(=O)Nc3ccc(Cl)c(C(F)(F)F)c3)c(F)c2)ccn1 [Regorafenib],percent Bodipy-positive cells,[3],8.29 ± 0.14%
same,percent Bodipy-positive cells,[4],18.4 ± 3.3%
same,percent Bodipy-positive cells,[5],10.3 ± 0.32%
same,percent Bodipy-positive cells,[1],11.8 ± 3.2%
CNC(=O)c1cc(Oc2ccc(NC(=O)Nc3ccc(Cl)c(C(F)(F)F)c3)c(F)c2)ccn1 [Regorafenib (BAY 73-4506)],percent Bodipy-positive cells,[2],9.08 ± 3.8%
same,percent Bodipy-positive cells,[1],23.2 ± 2.5%
CC(C)C[C@H](NC(=O)[C@H](O)[C@H](N)Cc1ccccc1)C(=O)O [Epibestatin hydrochloride],percent Bodipy-positive cells,[1],42.2 ± 4.6%
C=C1c2c(Cl)ccc(O)c2C(=O)C2=C(O)[C@]3(O)C(=O)C(C(N)=O)=C(O)[C@@H](N(C)C)[C@@H]3[C@@H](O)[C@H]12.O=C(O)c1cc(S(=O)(=O)O)ccc1O [Meclocycline sulfosalicylate],percent Bodipy-positive cells,,22 ± 3%
same,percent Bodipy-positive cells,[6],18.5 ± 0.45%
same,percent Bodipy-positive cells,[1],34.8 ± 18%
CCCCCCCCCCCCCCNC(=O)C1CCCCC1 [N-Cyclohexanecarbonyltetradecylamine],percent Bodipy-positive cells,[7],7.09 ± 1.9%
CNC[C@H](O)c1ccc(O)c(O)c1 [Adrenaline bitartrate],percent Bodipy-positive cells,library stock concentration: 6 mM,2.89 ± 1.7%
same,percent Bodipy-positive cells,[1],9.96 ± 1.4%
CNC[C@H](O)c1ccc(O)c(O)c1 [(-)-Epinephrine bitartrate],percent Bodipy-positive cells,[1],68.1 ± 3.6%
CNC[C@H](O)c1ccc(O)c(O)c1 [Epinephrine Bitartrate],percent Bodipy-positive cells,[2],10.1 ± 3.5%
same,percent Bodipy-positive cells,[1],43.3 ± 30%
CNC[C@H](O)c1ccc(O)c(O)c1 [(?)-Epinephrine hydrochloride],percent Bodipy-positive cells,[1],74.2 ± 2.5%
CNC[C@H](O)c1ccc(O)c(O)c1 [Epinephrine HCl],percent Bodipy-positive cells,[2],5.65 ± 1.9%
same,percent Bodipy-positive cells,[1],11.7 ± 4.3%
CC(C)NCC(O)COc1ccccc1-n1cccc1 (configuration not stated) [Isamoltane hemifumarate],percent Bodipy-positive cells,[1],26.5 ± 5.1%
C=CC(=O)Nc1cc2c(Nc3ccc(F)c(Cl)c3)ncnc2cc1OCCCN1CCOCC1,percent Bodipy-positive cells,[3],17.8 ± 0.18%
same,percent Bodipy-positive cells,[4],17.4% and 19%
same,percent Bodipy-positive cells,[5],22.4% and 27.1%
same,percent Bodipy-positive cells,[1],94.5 ± 7.7%
O=C(NCc1ccccc1)c1csc(Nc2ccncn2)n1 [Thiazovivin],percent Bodipy-positive cells,[2],9.4 ± 1.3%
same,percent Bodipy-positive cells,[1],54.6 ± 4.1%
CCCCCCCCCCCCCCCCCCN(CCCCCCCCCCCCCCCCCC)CCCN(CCO)CCO [Avridine],percent Bodipy-positive cells,[1],28.1 ± 7.5%
CNCc1ccc(-c2cc(-c3nc(-c4ccc(S(=O)(=O)C(C)C)cc4)cnc3N)on2)cc1,percent Bodipy-positive cells,[1],98.21 ± 0.14%
CN1CCN(CCCN2c3ccccc3Sc3ccc(C(F)(F)F)cc32)CC1 [Trifluoperazine 2HCl],percent Bodipy-positive cells,[2],30.6 ± 7.5%
same,percent Bodipy-positive cells,[1],98.92 ± 0.61%
CN1CCN(CCCN2c3ccccc3Sc3ccc(C(F)(F)F)cc32)CC1 [Trifluoperazine hydrochloride],percent Bodipy-positive cells,[1],62.3 ± 0.8%
CN1CCN(CCCN2c3ccccc3Sc3ccc(C(F)(F)F)cc32)CC1,percent Bodipy-positive cells,[1],95.51 ± 0.35%
CN1CCN(CCCN2c3ccccc3Sc3ccc(C(F)(F)F)cc32)CC1 [Trifluoperazine dihydrochloride],percent Bodipy-positive cells,,60 ± 2.6%
CN1CCN(CCCN2c3ccccc3Sc3ccc(C(F)(F)F)cc32)CC1 [Trifluoperazine],percent Bodipy-positive cells,library stock concentration: 4.9 mM,37.7 ± 2.9%

# Reformatted with bars between the fields: part of the list above
compound | measurement | setting | value
CNC(=O)c1cc(Oc2ccc(NC(=O)Nc3ccc(Cl)c(C(F)(F)F)c3)c(F)c2)ccn1 [Regorafenib] | percent Bodipy-positive cells | [1] | 11.8 ± 3.2%
CNC(=O)c1cc(Oc2ccc(NC(=O)Nc3ccc(Cl)c(C(F)(F)F)c3)c(F)c2)ccn1 [Regorafenib (BAY 73-4506)] | percent Bodipy-positive cells | [2] | 9.08 ± 3.8%
same | percent Bodipy-positive cells | [1] | 23.2 ± 2.5%
CC(C)C[C@H](NC(=O)[C@H](O)[C@H](N)Cc1ccccc1)C(=O)O [Epibestatin hydrochloride] | percent Bodipy-positive cells | [1] | 42.2 ± 4.6%
C=C1c2c(Cl)ccc(O)c2C(=O)C2=C(O)[C@]3(O)C(=O)C(C(N)=O)=C(O)[C@@H](N(C)C)[C@@H]3[C@@H](O)[C@H]12.O=C(O)c1cc(S(=O)(=O)O)ccc1O [Meclocycline sulfosalicylate] | percent Bodipy-positive cells |  | 22 ± 3%
same | percent Bodipy-positive cells | [6] | 18.5 ± 0.45%
same | percent Bodipy-positive cells | [1] | 34.8 ± 18%
CCCCCCCCCCCCCCNC(=O)C1CCCCC1 [N-Cyclohexanecarbonyltetradecylamine] | percent Bodipy-positive cells | [7] | 7.09 ± 1.9%
CNC[C@H](O)c1ccc(O)c(O)c1 [Adrenaline bitartrate] | percent Bodipy-positive cells | library stock concentration: 6 mM | 2.89 ± 1.7%
same | percent Bodipy-positive cells | [1] | 9.96 ± 1.4%
CNC[C@H](O)c1ccc(O)c(O)c1 [(-)-Epinephrine bitartrate] | percent Bodipy-positive cells | [1] | 68.1 ± 3.6%
CNC[C@H](O)c1ccc(O)c(O)c1 [Epinephrine Bitartrate] | percent Bodipy-positive cells | [2] | 10.1 ± 3.5%
same | percent Bodipy-positive cells | [1] | 43.3 ± 30%
CNC[C@H](O)c1ccc(O)c(O)c1 [(?)-Epinephrine hydrochloride] | percent Bodipy-positive cells | [1] | 74.2 ± 2.5%
CNC[C@H](O)c1ccc(O)c(O)c1 [Epinephrine HCl] | percent Bodipy-positive cells | [2] | 5.65 ± 1.9%
same | percent Bodipy-positive cells | [1] | 11.7 ± 4.3%
CC(C)NCC(O)COc1ccccc1-n1cccc1 (configuration not stated) [Isamoltane hemifumarate] | percent Bodipy-positive cells | [1] | 26.5 ± 5.1%
C=CC(=O)Nc1cc2c(Nc3ccc(F)c(Cl)c3)ncnc2cc1OCCCN1CCOCC1 | percent Bodipy-positive cells | [3] | 17.8 ± 0.18%
